Record: PubChem BioAssay AID1508588 (Peter MacCallum Cancer Centre, 2020)

Assay: 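Genome-wide search for knock-downs that heighten vemurafenib action in melanoma cells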 (primary screen)
Cells: human WM266.4 melanoma cells (BRAF V600 mutant)
Reagent: siRNA pool against human genes, 40 nM
Time to read-out: 96 h from transfection to read-out
Conditions: vemurafenib 300 nM (about IC25), added 48 h after transfection, for 48 h; comparison arm got DMSO vehicle only
Measured: 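Ratios to non-targeting siRNA for cell gain, counted as DAPI nuclei after minus before drug and averaged over two replicates, and for absorbance-read medium lactate per cell; both binned into fold-change classes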
Direction: cell gain with vemurafenib: higher = more cell gain than with non-targeting siRNA; lactate per cell with vemurafenib: higher = more lactate made per cell
Hit rule: 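a knock-down counts as enhancing when its fold-change classes with vehicle and with vemurafenib, taken together, show a stronger drug effect on cell gain or lactate per cell; exact class pairs not stated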
Calls: active = enhances vemurafenib effect; inactive = no enhancement seen
In all, the deposit lists about 18,000 reagents; shown is a part drawn at random. 790 of all reagents (4.4%) count as active. 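Calls rest on a combination of fold-change classes in drug and vehicle arms, not all shown here.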 Entries without a mark were called inactive. Reagents against one gene are numbered here. Reagent sequences are not shown.

target gene | reagent | cell gain with vemurafenib | lactate per cell with vemurafenib
AMPH (GeneID 273) | 1 | 0.68 | 0.92
SLC47A2 (GeneID 146802) | 1 | 0.21 | 0.57
RAB39A (GeneID 54734) | 1 | 0.43 | 0.82
ZNF23 (GeneID 7571) | 1 | 0.72 | 1.02
CFAP54 (GeneID 144535) | 1 | 0.87 | 0.76
LYPD4 (GeneID 147719) | 1 | 0.81 | 0.68
USP29 (GeneID 57663) | 1 | 0.92 | 1.25
BPY2B (GeneID 442867) | 1 | 1.01 | 0.78
TMEM176B (GeneID 28959) | 1 | 0.84 | 0.83
SERAC1 (GeneID 84947) | 1 | 0.54 | 0.86
FOXP2 (GeneID 93986) | 1 | 0.83 | 0.45
SUCLG2 (GeneID 8801) | 1 | 0.28 | 1.58
MORF4L1 (GeneID 10933) | 1 | 0.28 | 0.4
H2BC1 (GeneID 255626) | 1 | 0.77 | 0.83
CELSR3 (GeneID 1951) | 1 | 0.07 | 2.17
RHBDF1 (GeneID 64285) | 1 | 0.75 | 0.38
KDELR1 (GeneID 10945) | 1 | 0.43 | 0.6
SMARCE1 (GeneID 6605) | 1 | 0.59 | 0.78
DIAPH3 (GeneID 81624) | 1 | 0.46 | 0.36
RPL35A (GeneID 6165) | 1 | -0.04 | 0.19
SERPINB10 (GeneID 5273) | 1 | 0.58 | 1.66
ZNF620 (GeneID 253639) | 1 | 0.63 | 0.65
ADA (GeneID 100) | 1 | 0.92 | 0.66
BRWD1 (GeneID 54014) | 1 | 0.51 | 0.79
ADAMTS13 (GeneID 11093) | 1 | 0.57 | 0.68
NRG3 (GeneID 10718) | 1 | 0.54 | 0.84
FES (GeneID 2242) | 1 | 0.26 | 1.48
ZC3H7A (GeneID 29066) | 1 | 0.6 | 0.59
BRINP3 (GeneID 339479) | 1 | 1.1 | 0.5
SNX31 (GeneID 169166) | 1 | 0.59 | 0.44
GFOD1 (GeneID 54438) | 1 | 0.48 | 1.1
GFOD1 (GeneID 54438) | 2 | 0.48 | 0.73
TSHZ3 (GeneID 57616) | 1 | 0.96 | 0.9
OR6Q1 (GeneID 219952) | 1 | 0.54 | 0.8
NHP2 (GeneID 55651) | 1 | 0.49 | 1.22
NEDD4 (GeneID 4734) | 1 | 0.65 | 1.08
ATG101 (GeneID 60673) | 1 | 0.96 | 1.04
TRIM25 (GeneID 7706) | 1 | 0.48 | 1.81
ALDH2 (GeneID 217) | 1 | 0.5 | 0.51
CSMD2 (GeneID 114784) | 1 | 1.08 | 1.02
TRIM4 (GeneID 89122) | 1 | 0.78 | 0.94
APOL3 (GeneID 80833) | 1 | 0.95 | 1.78
ERO1B (GeneID 56605) | 1 | 0.71 | 1.17
FARSB (GeneID 10056) | 1 | 0.54 | 0.84
PRR23B (GeneID 389151) | 1 | 0.32 | 1.73
RBM5 (GeneID 10181) | 1 | 0.34 | 0.32
SPC25 (GeneID 57405) | 1 | 0.18 | 2.25
ZNF75D (GeneID 7626) | 1 | 0.72 | 0.57
GAB1 (GeneID 2549) | 1 | 0.25 | 0.85
FHOD3 (GeneID 80206) | 1 | 0.35 | 0.96
MFHAS1 (GeneID 9258) | 1 | 0.79 | 1.07
CTAG1B (GeneID 1485) | 1 | 0.17 | 1.17
CARD11 (GeneID 84433) | 1 | 0.4 (active) | 0.19
USP8 (GeneID 9101) | 1 | 0.81 | 0.88
TUBGCP4 (GeneID 27229) | 1 | 0.52 | 0.84
CHD8 (GeneID 57680) | 1 | 0.33 (active) | 0.7
TUBA1B (GeneID 10376) | 1 | -0.13 | 3.27
ZFPM1 (GeneID 161882) | 1 | 0.43 | 0.34
ATP2B3 (GeneID 492) | 1 | 0.95 | 0.63
FCGR2A (GeneID 2212) | 1 | 0.35 | 0.97
PNRC1 (GeneID 10957) | 1 | 0.22 | 0.75
RPL19 (GeneID 6143) | 1 | -0.09 | 1.36
MPST (GeneID 4357) | 1 | 0.05 | 1.72
MPV17L (GeneID 255027) | 1 | 0.35 | 1.67
TXNDC12 (GeneID 51060) | 1 | -0.09 | 3.77
ADGRB1 (GeneID 575) | 1 | 0.66 | 1.1
MN1 (GeneID 4330) | 1 | 0.9 | 0.28
TSG101 (GeneID 7251) | 1 | 0.93 | 1.02
MED19 (GeneID 219541) | 1 | 0.32 | 1.4
GABRB2 (GeneID 2561) | 1 | 0.16 | 1.19
C7orf25 (GeneID 79020) | 1 | 0.69 | 0.52
MXRA5 (GeneID 25878) | 1 | 0.94 | 0.54
HCN3 (GeneID 57657) | 1 | 1.16 | 0.55
H2BW1 (GeneID 158983) | 1 | 0.36 | 1.62
PRM2 (GeneID 5620) | 1 | 0.69 | 0.78
GOLGA8G (GeneID 283768) | 1 | 0.77 | 0.64
MSRB2 (GeneID 22921) | 1 | 0.57 | 1.5
CYP4B1 (GeneID 1580) | 1 | 1.05 | 0.78
TMUB2 (GeneID 79089) | 1 | 0.62 | 0.82
PTGDR2 (GeneID 11251) | 1 | 0.53 | 0.76
KCNA2 (GeneID 3737) | 1 | 0.82 | 0.56
CSPG5 (GeneID 10675) | 1 | 0.46 | 0.25
UNC119B (GeneID 84747) | 1 | 0.77 | 0.88
NGFR (GeneID 4804) | 1 | 0.66 | 0.54

Records listed above with an active call (2):
target gene | reagent | cell gain with vemurafenib | lactate per cell with vemurafenib
CARD11 (GeneID 84433) | 1 | 0.4 (active) | 0.19
CHD8 (GeneID 57680) | 1 | 0.33 (active) | 0.7
